Measured values taken from patent US10030039B2, “Anti-cancer agent and cancer cell killing method” (IHI Corporation, priority 2014, dated 2018).
At least one compound was matched to its structure with a doubt left.

Assay: Magnetic property of anti-cancer agent: neodymium magnet under Petri dish
Assay type: physicochemical
Conditions: neodymium permanent magnet, surface magnetic flux density 800 mT

## CC(=O)O[C@H]1C(=O)[C@@]2(C)[C@H]([C@H](OC(=O)c3ccccc3)[C@]3(O)C[C@H](OC(=O)[C@H](OC(=O)Nc4ccc5c(c4)/C=N/CC/N=C/c4cc(N)ccc4[O][Fe][O]5)[C@@H](NC(=O)c4ccccc4)c4ccccc4)C(C)=C1C3(C)C)[C@]1(OC(C)=O)CO[C@@H]1C[C@@H]2O [Example 1]
  status of the complex in purified water when the magnet is placed close to the Petri dish: gathered to an area to which the magnetic field is applied
